According to the supplement of paper PMC12823440, “Inhibitors supercharge kinase turnover through native proteolytic circuits” (Nature, 2025):
Where a name gives a salt, the structure may show the parent alone. This is one part of the list. Hit calls seldom repeat between salt and free forms of one compound.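 Kinases were expressed as nanoluciferase fusions in K562 cells and luminescence was read every 4 h between 2 and 18 h as percent of control, DMSO set to 100% and a positive control to 0%. A time point counts as decreased when the signal drops significantly (2 sigma). The hit call is the authors' own, does not follow from the count of time points alone, and its rule is not shown.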

By UniProt entry, the sequences of proteins in these tests, tags left out. Where a name states a change or a piece, a line headed by the entry shows the natural chain unless it says otherwise.
UniProt Q05397, whole entry, looked up: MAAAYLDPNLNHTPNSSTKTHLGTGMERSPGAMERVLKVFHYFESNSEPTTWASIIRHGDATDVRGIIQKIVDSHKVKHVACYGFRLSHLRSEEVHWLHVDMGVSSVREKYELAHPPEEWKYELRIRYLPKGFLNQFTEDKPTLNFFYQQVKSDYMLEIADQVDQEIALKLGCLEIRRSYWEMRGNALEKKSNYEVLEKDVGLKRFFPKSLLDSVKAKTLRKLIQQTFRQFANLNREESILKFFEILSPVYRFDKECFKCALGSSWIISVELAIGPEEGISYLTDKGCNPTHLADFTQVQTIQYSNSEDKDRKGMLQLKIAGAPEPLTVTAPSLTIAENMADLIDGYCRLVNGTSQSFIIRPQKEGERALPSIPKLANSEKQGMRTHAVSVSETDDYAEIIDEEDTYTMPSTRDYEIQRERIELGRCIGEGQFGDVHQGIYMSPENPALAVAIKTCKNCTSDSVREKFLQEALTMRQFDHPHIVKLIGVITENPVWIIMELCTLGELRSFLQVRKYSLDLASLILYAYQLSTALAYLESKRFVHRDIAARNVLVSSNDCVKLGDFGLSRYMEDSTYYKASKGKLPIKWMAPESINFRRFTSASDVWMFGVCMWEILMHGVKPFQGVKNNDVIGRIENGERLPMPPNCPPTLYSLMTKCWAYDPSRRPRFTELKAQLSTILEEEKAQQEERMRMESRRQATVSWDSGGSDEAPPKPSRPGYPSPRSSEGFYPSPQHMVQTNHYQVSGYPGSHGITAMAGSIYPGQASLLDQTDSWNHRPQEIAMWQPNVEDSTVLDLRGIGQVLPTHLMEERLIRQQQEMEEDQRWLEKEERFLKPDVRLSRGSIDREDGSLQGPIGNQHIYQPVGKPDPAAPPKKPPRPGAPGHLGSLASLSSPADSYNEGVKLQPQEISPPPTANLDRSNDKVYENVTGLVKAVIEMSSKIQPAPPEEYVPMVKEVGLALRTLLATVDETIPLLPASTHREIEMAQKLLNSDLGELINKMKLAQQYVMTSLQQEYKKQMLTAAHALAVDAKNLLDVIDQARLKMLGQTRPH
UniProt Q14289, whole entry, looked up: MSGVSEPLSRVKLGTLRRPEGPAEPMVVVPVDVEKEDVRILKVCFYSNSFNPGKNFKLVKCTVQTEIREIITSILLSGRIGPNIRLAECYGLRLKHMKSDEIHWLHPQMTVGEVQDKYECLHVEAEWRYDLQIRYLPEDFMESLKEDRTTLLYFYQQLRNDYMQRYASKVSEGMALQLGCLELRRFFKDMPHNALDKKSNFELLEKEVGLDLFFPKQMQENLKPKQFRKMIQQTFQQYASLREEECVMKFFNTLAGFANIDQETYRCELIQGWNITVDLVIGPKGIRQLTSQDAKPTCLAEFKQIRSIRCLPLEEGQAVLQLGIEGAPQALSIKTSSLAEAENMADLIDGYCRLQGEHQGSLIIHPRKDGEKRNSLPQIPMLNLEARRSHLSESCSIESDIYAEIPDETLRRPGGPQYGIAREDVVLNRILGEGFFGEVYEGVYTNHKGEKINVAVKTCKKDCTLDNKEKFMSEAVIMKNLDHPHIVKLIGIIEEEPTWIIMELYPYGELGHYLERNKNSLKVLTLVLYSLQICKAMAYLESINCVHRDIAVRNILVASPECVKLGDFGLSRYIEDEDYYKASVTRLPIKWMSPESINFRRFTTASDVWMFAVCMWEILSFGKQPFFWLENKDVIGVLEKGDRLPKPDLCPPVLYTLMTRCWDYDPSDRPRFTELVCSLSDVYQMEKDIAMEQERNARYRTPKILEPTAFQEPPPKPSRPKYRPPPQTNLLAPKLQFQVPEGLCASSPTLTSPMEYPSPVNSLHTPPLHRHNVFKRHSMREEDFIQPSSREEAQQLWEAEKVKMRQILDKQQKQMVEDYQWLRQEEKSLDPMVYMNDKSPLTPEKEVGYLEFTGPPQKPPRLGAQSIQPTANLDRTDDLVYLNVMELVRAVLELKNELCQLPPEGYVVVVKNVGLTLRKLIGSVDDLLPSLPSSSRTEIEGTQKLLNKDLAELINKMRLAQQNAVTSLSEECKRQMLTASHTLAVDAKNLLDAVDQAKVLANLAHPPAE
UniProt P07949, whole entry, looked up: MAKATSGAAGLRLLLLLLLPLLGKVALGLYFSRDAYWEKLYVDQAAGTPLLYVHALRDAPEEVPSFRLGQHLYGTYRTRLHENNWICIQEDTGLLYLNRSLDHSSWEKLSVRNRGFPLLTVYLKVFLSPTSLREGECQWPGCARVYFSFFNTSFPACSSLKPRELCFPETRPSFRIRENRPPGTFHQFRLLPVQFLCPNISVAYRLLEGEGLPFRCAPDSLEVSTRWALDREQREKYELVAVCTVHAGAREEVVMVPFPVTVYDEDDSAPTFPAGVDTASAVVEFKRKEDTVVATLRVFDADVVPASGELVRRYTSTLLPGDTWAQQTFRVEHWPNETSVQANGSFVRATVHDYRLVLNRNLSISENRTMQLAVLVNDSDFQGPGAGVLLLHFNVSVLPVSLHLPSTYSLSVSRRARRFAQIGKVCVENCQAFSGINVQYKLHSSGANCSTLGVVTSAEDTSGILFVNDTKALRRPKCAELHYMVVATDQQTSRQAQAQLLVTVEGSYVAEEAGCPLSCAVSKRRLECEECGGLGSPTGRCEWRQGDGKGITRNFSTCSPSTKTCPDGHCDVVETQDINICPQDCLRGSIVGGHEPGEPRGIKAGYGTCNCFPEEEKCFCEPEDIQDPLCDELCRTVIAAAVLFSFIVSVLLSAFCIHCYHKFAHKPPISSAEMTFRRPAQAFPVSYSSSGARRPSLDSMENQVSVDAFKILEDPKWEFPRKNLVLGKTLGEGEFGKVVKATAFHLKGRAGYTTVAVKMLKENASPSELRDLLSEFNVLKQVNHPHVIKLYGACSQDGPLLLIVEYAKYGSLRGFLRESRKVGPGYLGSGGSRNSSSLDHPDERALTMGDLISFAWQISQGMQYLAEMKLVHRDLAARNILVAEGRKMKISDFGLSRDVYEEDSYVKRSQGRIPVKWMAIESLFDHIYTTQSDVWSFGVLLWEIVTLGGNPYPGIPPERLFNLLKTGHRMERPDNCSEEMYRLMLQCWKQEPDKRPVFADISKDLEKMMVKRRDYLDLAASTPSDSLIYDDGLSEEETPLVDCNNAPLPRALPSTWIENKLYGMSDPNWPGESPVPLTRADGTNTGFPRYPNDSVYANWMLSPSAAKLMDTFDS
UniProt P07949, whole entry M918T, looked up: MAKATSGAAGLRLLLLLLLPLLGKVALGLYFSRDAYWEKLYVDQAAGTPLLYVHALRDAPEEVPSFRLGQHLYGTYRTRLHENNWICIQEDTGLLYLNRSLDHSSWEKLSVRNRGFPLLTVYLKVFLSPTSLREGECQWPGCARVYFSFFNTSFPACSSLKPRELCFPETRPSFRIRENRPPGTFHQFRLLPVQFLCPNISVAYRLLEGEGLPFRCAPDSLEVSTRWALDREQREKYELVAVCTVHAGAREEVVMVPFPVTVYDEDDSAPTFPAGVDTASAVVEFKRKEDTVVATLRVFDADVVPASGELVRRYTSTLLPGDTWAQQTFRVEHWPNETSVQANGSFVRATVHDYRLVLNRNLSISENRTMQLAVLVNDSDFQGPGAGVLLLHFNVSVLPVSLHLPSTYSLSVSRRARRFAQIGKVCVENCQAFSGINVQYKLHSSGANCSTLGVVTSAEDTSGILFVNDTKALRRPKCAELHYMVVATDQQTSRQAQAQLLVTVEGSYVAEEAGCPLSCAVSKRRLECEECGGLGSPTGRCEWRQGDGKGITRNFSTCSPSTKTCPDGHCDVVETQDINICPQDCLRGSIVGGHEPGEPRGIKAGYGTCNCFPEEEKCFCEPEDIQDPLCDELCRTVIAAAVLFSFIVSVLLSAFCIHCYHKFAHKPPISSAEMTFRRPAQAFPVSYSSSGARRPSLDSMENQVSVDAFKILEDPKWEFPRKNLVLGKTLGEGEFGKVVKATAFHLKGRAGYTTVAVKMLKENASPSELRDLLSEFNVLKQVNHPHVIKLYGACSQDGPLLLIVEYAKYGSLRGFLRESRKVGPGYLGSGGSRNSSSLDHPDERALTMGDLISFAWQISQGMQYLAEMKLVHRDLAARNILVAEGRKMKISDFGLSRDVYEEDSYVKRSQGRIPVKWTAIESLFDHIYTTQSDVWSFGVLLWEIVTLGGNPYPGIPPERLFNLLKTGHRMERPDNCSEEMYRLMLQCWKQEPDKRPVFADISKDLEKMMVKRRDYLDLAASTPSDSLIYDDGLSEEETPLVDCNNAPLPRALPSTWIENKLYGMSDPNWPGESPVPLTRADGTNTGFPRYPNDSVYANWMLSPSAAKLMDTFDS
UniProt Q9BRS2: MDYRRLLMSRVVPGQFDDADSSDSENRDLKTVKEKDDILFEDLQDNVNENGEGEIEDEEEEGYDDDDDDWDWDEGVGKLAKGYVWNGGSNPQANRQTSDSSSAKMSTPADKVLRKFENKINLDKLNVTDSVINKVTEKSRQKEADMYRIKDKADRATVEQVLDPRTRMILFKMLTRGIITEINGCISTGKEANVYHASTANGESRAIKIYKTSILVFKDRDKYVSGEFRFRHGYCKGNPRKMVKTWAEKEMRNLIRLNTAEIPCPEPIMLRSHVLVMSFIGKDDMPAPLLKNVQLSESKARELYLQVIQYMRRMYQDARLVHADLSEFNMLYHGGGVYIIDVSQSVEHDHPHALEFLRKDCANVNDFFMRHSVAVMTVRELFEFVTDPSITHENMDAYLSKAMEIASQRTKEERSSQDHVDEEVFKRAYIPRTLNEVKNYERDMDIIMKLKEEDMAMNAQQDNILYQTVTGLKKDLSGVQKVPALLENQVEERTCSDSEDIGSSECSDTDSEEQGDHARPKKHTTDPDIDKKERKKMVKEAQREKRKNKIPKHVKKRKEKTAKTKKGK
UniProt Q13546: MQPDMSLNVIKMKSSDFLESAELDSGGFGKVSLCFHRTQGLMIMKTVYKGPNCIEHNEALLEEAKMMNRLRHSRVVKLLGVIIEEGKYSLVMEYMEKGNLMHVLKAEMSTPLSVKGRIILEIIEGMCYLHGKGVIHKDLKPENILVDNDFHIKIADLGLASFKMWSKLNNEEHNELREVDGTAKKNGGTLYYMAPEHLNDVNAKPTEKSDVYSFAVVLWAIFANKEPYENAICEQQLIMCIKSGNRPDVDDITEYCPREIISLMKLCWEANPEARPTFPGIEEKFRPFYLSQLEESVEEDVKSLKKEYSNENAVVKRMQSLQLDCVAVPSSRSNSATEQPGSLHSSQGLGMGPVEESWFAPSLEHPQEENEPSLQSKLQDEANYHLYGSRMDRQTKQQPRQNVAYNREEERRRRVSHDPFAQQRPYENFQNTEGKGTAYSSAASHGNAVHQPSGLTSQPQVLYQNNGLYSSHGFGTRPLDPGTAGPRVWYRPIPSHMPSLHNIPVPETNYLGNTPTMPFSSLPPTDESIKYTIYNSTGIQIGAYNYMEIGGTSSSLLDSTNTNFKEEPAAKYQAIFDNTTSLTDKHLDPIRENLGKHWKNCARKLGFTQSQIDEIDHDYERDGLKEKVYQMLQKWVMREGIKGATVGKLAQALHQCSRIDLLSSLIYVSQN

Columns and labels:
Experiment in all cases: number of time points (of 5) at which kinase-Nluc abundance scored as decreased, DMSO-normalised (count); higher = more persistent destabilization
Settings in all cases: K562; 2-18 h
PRKCA = PRKCA (UniProt P17252)
PTK2 = PTK2 (UniProt Q05397)
PTK2B = PTK2B (UniProt Q14289)
RAF1 = RAF1 (UniProt P04049)
[1] = molecular target: RAF1_S257L (clone: RAF1_mut) (UniProt P04049)
RET = RET (UniProt P07949)
[2] = molecular target: RET_M918T (clone: RET_mut) (UniProt P07949)
RIOK1 = RIOK1 (UniProt Q9BRS2)
RIPK1 = RIPK1 (UniProt Q13546)
RIPK2 = RIPK2 (UniProt O43353)

Measured: number of time points

O[C@H]1CC[C@H](Nc2ncc3nc(Nc4c(F)cc(F)cc4F)n([C@H]4CCOC4)c3n2)CC1 [Tanzisertib] (10 µM)
0: all assays above

Nc1[nH]c(=O)nc2c1ncn2[C@@H]1O[C@H](CO)[C@@H](O)[C@H]1O [Crotonoside] (10 µM)
0: all assays above

CC(CCc1ccccn1)(CCc1ccccn1)C(=O)c1ccccc1 (10 µM)
0: all assays above

Oc1ccccc1C(=S)N1CCCC1 (10 µM)
0: all assays above

Cc1cnc(Nc2ccc(N3CCN(C)CC3)cc2)nc1Nc1cccc(S(=O)(=O)NC(C)(C)C)c1 (2.5 µM)
0: all assays above

Cn1cc(-c2cc3c(N4CCN(c5ncc([C@@](C)(N)c6ccc(F)cc6)cn5)CC4)ncnn3c2)cn1 [Avapritinib] (2.5 µM)
0: all assays above

COc1c(C)c(C(=O)c2ccc(N)c(C(=O)O)c2)n2ccccc12 (10 µM)
0: all assays above

CN1C(=O)NC(Cc2c[nH]c3c(Cl)cccc23)C1=O (racemic) [Necrostatin 2 (racemate)] (10 µM)
0: all assays above

CC(C)(C)Cn1c(N)nc2ccc(-c3[nH]c(C(C)(C)C)nc3-c3ccc(F)cc3)nc21 [Ralimetinib dimesylate] (2.5 µM)
0: all assays above

COc1cc(N2CCC(O)CC2)ccc1Nc1cc(Nc2ccccc2S(=O)(=O)C(C)C)c2cc[nH]c2n1 (10 µM)
0: all assays above

NS(=O)(=O)c1ccc(N2N=C(c3ccccc3)CC2c2ccccc2)cc1 (stereo not given) (10 µM)
1: [1]
0: all other assays above

CN(C)c1nc2c(Br)c(Br)c(Br)c(Br)c2n1CC(=O)O (10 µM)
0: all assays above

Nc1n[nH]c2cc(-c3ccc(=O)n(Cc4cccc(Cl)c4)c3)ccc12 (10 µM)
0: all assays above

CCc1cccc(CC)c1NC(=O)c1nn(C)c2c1CCc1cnc(Nc3ccc(C(=O)NC4CCN(C)CC4)cc3OC(F)(F)F)nc1-2 (2 µM)
0: all assays above

CC(C)(O)[C@@H]1CC[C@](C)([C@H]2[C@@H](O)C[C@@]3(C)[C@@H]4C[C@H](O[C@@H]5O[C@H](CO)[C@@H](O)[C@H](O)[C@H]5O)[C@H]5C(C)(C)[C@@H](O[C@@H]6OC[C@@H](O)[C@H](O)[C@H]6O[C@@H]6O[C@H](CO)[C@@H](O)[C@H](O)[C@H]6O)CC[C@@]56C[C@@]46CC[C@]23C)O1 [Astragaloside VI] (10 µM)
0: all assays above

NC(=O)c1ccc(-c2cnn3ccc(NCc4cccnc4)nc23)cc1 (2.5 µM)
2: RIPK2
0: all other assays above

Cc1cc(C(C)Nc2ccccc2)c2nc(N3CCOCC3)cc(=O)n2c1 (stereo not given) (10 µM)
0: all assays above

CCCNC(=O)c1cn2ncnc(Nc3cc(C(=O)NC4CC4)ccc3C)c2c1C (10 µM)
0: all assays above

Cc1cccc(-c2[nH]ncc2-c2ccc3ncccc3n2)n1 (10 µM)
1: RIPK2
0: all other assays above

N#C/C(=C\c1ccc2oc(=O)[nH]c2c1)C(=O)c1ccc(O)c(O)c1 (10 µM)
0: all assays above

COC(=O)N[C@@H](C)CNc1nccc(-c2cn(C(C)C)nc2-c2cc(Cl)cc(NS(C)(=O)=O)c2F)n1 [Encorafenib] (10 µM)
0: all assays above

CNC(=O)c1ccc(-c2cnc3cnc(-c4ccccc4)cn23)cc1 (10 µM)
0: all assays above

Cc1cc(Nc2nc(N[C@@H](C)c3ncc(F)cn3)ncc2Cl)[nH]n1 (10 µM)
0: all assays above

Part of the list above in order of number of heavy atoms, low to high:
Nc1n[nH]c2cc(-c3ccc(=O)n(Cc4cccc(Cl)c4)c3)ccc12 (10 µM)
0: all assays above

Cn1cc(-c2cc3c(N4CCN(c5ncc([C@@](C)(N)c6ccc(F)cc6)cn5)CC4)ncnn3c2)cn1 [Avapritinib] (2.5 µM)
0: all assays above

CC(C)(O)[C@@H]1CC[C@](C)([C@H]2[C@@H](O)C[C@@]3(C)[C@@H]4C[C@H](O[C@@H]5O[C@H](CO)[C@@H](O)[C@H](O)[C@H]5O)[C@H]5C(C)(C)[C@@H](O[C@@H]6OC[C@@H](O)[C@H](O)[C@H]6O[C@@H]6O[C@H](CO)[C@@H](O)[C@H](O)[C@H]6O)CC[C@@]56C[C@@]46CC[C@]23C)O1 [Astragaloside VI] (10 µM)
0: all assays above

The list goes on:

CCCCNC(=N)NC(=N)N [Buformin (hydrochloride)] (2.5 µM)
0: all assays above

CC(C)N(C)c1nc2cc(C(=O)O)ccc2nc1-c1ccc(F)cc1 (10 µM)
0: all assays above

COc1cc(C(C)=O)cc(OC)c1O [Acetosyringone] (10 µM)
0: all assays above

Cc1ccc(-c2ncn(-c3ccc(Nc4nccc(-c5cccc(N6CCOCC6)c5)n4)cc3)n2)cn1 (10 µM)
0: all assays above

COc1ccc2c(=O)c(-c3ccccc3)coc2c1 [7-Methoxyisoflavone] (10 µM)
4: [2]
0: all other assays above

CC(=O)Nc1nc(C)c(-c2nc(N3CCCC(O)C3)no2)s1 (stereo not given) (10 µM)
0: all assays above

COc1cc(C(=O)N2CCC(N3CCN(C)CC3)CC2)ccc1Nc1ncc2c(n1)N(C)c1ccccc1C(=O)N2C (10 µM)
0: all assays above

CC(C)(C)C(=O)N1N=CC[C@H]1c1ccccc1 (10 µM)
0: all assays above

CCN1/C(=C/C(C)=O)Sc2ccc(OC)cc21 (10 µM)
3: PTK2 | RIPK1
1: PRKCA | RET | RIOK1
2: RIPK2
0: all other assays above

Nc1ncc(-c2ccc(C(=O)N3CCNCC3)cc2)nc1-c1ccc(C(F)(F)F)cc1 (10 µM)
0: all assays above

O=C(c1ccc(Nc2nccc(-c3cc4ccccc4s3)n2)cc1)N1CCC(N2CCCC2)CC1 (2.5 µM)
0: all assays above

Cc1ccc(-c2ccc3c(ccc4sc5c(c43)NC[C@@H](C)NC5=O)n2)cn1 (10 µM)
0: all assays above

C=CC(=O)Nc1cccc(-n2c(=O)cc(C)c3cnc(Nc4ccc(OCCN(C)C)cc4OC)nc32)c1 (10 µM)
0: all assays above
